Measured values as given in US5858751A, “Compositions and methods for producing sialyltransferases” (The Regents of the University of California, priority 1995, dated 1999).

B1: ST3: Galβ1,3GalNAc/Galβ1,4GlcNAc α2,3 sialyltransferase, Seq. ID 11, 12 (protein)
chain: MCPAGWKLLAMLALVLVVMVWYSISREDRYIEPFYFPIPEKKEPCLQGEAESKASKLFGNYSRDQPIFLRLEDYFWVKTPSAYELPYGTKGSEDLLLRVLAITSSSIPKNIQSLRCRRCVVVGNGHRLRNSSLGDAINKYDVVIRLNNAPVAGYEGDVGSKTTMRLFYPESAHFDPKVENNPDTLLVLVAFKAMDFHWIETILSDKKRVRKGFWKQPPLIWDVNPKQIRILNPFFMEIAADKLLSLPMQQPRKIKQKPTTGLLAITLALHLCDLVHIAGFGYPDAYNKKQTIHYYEQITLKSMAGSGHNVSQEALAIKRMLEMGAIKNLTSF
B2: ST3N: rat Galβ1,3(4)GlcNAc α2,3 sialyltransferase, Seq. ID 3, 4 (protein)
chain: MGLLVFVRNLLLALCLFLVLGFLYYSAWKLHLLQWEDSNSLILSLDSAGQTLGTEYDRLGFLLKLDSKLPAELATKYANFSEGACKPGYASAMMTAIFPRFSKPAPMFLDDSFRKWARIREFVPPFGIKGQDNLIKAILSVTKEYRLTPALDSLHCRRCIIVGNGGVLANKSLGSRIDDYDIVIRLNSAPVKGFEKDVGSKTTLRITYPEGAMQRPEQYERDSLFVLAGFKWQDFKWLKYIVYKERVSASDGFSKSVATRVPKEPPEIRILNPYFIQEAAFTLIRLPFNNGLMGRGNIPTLGSVAVTMALDGCDEVAVAGFGYDMNTPNAPLHYYETVRMAAIKESWTHNIQREKEFLRKLVKARVITDLSSGI
B3: ST6N: rat Galβ1,4GlcNAc α2,6-sialyltransferase (protein, UniProt P13721 1-403, looked up)
Beta-galactoside …: MIHTNLKKKFSLFILVFLLFAVICVWKKGSDYEALTLQAKEFQMPKSQEKVAMGSASQVVFSNSKQDPKEDIPILSYHRVTAKVKPQPSFQVWDKDSTYSKLNPRLLKIWRNYLNMNKYKVSYKGPGPGVKFSVEALRCHLRDHVNVSMIEATDFPFNTTEWEGYLPKENFRTKVGPWQRCAVVSSAGSLKNSQLGREIDNHDAVLRFNGAPTDNFQQDVGSKTTIRLMNSQLVTTEKRFLKDSLYTEGILIVWDPSVYHADIPKWYQKPDYNFFETYKSYRRLNPSQPFYILKPQMPWELWDIIQEISADLIQPNPPSSGMLGIIIMMTLCDQVDIYEFLPSKRKTDVCYYHQKFFDSACTMGAYHPLLFEKNMVKHLNEGTDEDIYLFGKATLSGFRNIRC

Test system: sialidase from Newcastle disease virus
Format: biochemical
Conditions: [14C]NeuAc labeled α1-acid glycoprotein hydrolyzed with Newcastle disease virus sialidase

| Molecule | total [14C]NeuAc released from the enzyme's sialylated product [%] |
| --- | --- |
| B1 | 83 |
| B2 | 82 |
| B3 | 0 |
